# Test results: the supplement of paper PMC8728848
# The list shows a part of the results.
# Assays:
# Experiment in all cases: glycan array binding signal (z-score within array); higher = stronger binding
# Settings in all cases: glycan notation: IUPAC condensed, linker removed
# [1] = target: Neu5Ac(a2-3)Gal(b1-4)GlcNAc(b1-3)Gal(b1-4)GlcNAc(b1-2)Man(a1-3)[Neu5Ac(a2-3)Gal(b1-4)GlcNAc(b1-3)Gal(b1-4)GlcNAc(b1-2)Man(a1-6)]Man(b1-4)GlcNAc(b1-4)GlcNAc
# How it was run: (§1)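 Glycan array data were curated from 3228 arrays in the Consortium for Functional Glycomics database and kept only where the protein sequence was available. Glycan names were converted to IUPAC-condensed notation, and columns mapping to the same glycan were averaged. The binding signal is a within-array Z-score, averaged across arrays of the same protein sequence at different concentrations or buffers and across linkers. Negative Z-scores can be read as non-binding.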
# [2] = target: Neu5Ac(a2-3)Gal(b1-4)GlcNAc(b1-3)Gal(b1-4)GlcNAc(b1-3)Gal(b1-4)GlcNAc
# How it was run: as §1
# [3] = target: Neu5Ac(a2-3)Gal(b1-4)GlcNAc(b1-3)Gal(b1-4)GlcNAc(b1-3)Gal(b1-4)GlcNAc(b1-2)Man(a1-3)[Neu5Ac(a2-3)Gal(b1-4)GlcNAc(b1-3)Gal(b1-4)GlcNAc(b1-3)Gal(b1-4)GlcNAc(b1-2)Man(a1-6)]GalNAc
# How it was run: as §1
# [4] = target: Neu5Ac(a2-3)Gal(b1-4)GlcNAc(b1-3)Gal(b1-4)GlcNAc(b1-3)GalNAc
# How it was run: as §1
# [5] = target: Neu5Ac(a2-3)Gal(b1-4)GlcNAc(b1-3)Gal(b1-4)GlcNAc(b1-3)[Neu5Ac(a2-3)Gal(b1-4)GlcNAc(b1-3)Gal(b1-4)GlcNAc(b1-6)]GalNAc
# How it was run: as §1
# [6] = target: Neu5Ac(a2-3)Gal(b1-4)GlcNAc(b1-3)Gal(b1-4)GlcNAc(b1-6)[Gal(b1-3)]GalNAc
# How it was run: as §1
# [7] = target: Neu5Ac(a2-3)Gal(b1-4)GlcNAc(b1-3)Gal(b1-4)[Fuc(a1-3)]GlcNAc
# How it was run: as §1
# [8] = target: Neu5Ac(a2-3)Gal(b1-4)GlcNAc(b1-3)GalNAc
# How it was run: as §1
# [9] = target: Neu5Ac(a2-3)Gal(b1-4)GlcNAc(b1-3)[Neu5Ac(a2-3)Gal(b1-4)GlcNAc(b1-6)]GalNAc
# How it was run: as §1
# [10] = target: Neu5Ac(a2-3)Gal(b1-4)GlcNAc(b1-6)GalNAc
# How it was run: as §1
# [11] = target: Neu5Ac(a2-3)Gal(b1-4)GlcNAc(b1-6)[Gal(b1-3)]GalNAc
# How it was run: as §1
# [12] = target: Neu5Ac(a2-3)Gal(b1-4)GlcNAc(b1-6)[Neu5Ac(a2-3)Gal(b1-3)]GalNAc
# How it was run: as §1
# [13] = target: Neu5Ac(a2-3)Gal(b1-4)GlcNAc6S
# How it was run: as §1
# [14] = target: Neu5Ac(a2-3)Gal(b1-4)[Fuc(a1-3)]GlcNAc
# How it was run: as §1
# [15] = target: Neu5Ac(a2-3)Gal(b1-4)[Fuc(a1-3)]GlcNAc(b1-2)Man
# How it was run: as §1
# [16] = target: Neu5Ac(a2-3)Gal(b1-4)[Fuc(a1-3)]GlcNAc(b1-3)Gal
# How it was run: as §1
# [17] = target: Neu5Ac(a2-3)Gal(b1-4)[Fuc(a1-3)]GlcNAc(b1-3)Gal(b1-4)GlcNAc
# How it was run: as §1
# [18] = target: Neu5Ac(a2-3)Gal(b1-4)[Fuc(a1-3)]GlcNAc(b1-3)Gal(b1-4)[Fuc(a1-3)]GlcNAc(b1-3)Gal(b1-4)[Fuc(a1-3)]GlcNAc
# How it was run: as §1
# [19] = target: Neu5Ac(a2-3)Gal(b1-4)[Fuc(a1-3)]GlcNAc(b1-3)GalNAc
# How it was run: as §1
# [20] = target: Neu5Ac(a2-3)Gal(b1-4)[Fuc(a1-3)]GlcNAc(b1-6)[Gal(b1-3)]GalNAc
# How it was run: as §1
# [21] = target: Neu5Ac(a2-3)Gal(b1-4)[Fuc(a1-3)]GlcNAc(b1-6)[Neu5Ac(a2-3)Gal(b1-3)]GalNAc
# How it was run: as §1
# [22] = target: Neu5Ac(a2-3)Gal(b1-4)[Fuc(a1-3)]GlcNAc6S
# How it was run: as §1
# [23] = target: Neu5Ac(a2-3)Gal6S(b1-4)GlcNAc
# How it was run: as §1
# [24] = target: Neu5Ac(a2-3)Gal6S(b1-4)[Fuc(a1-3)]GlcNAc
# How it was run: as §1
# Neu5Ac(a2-3)GalNAc = target: Neu5Ac(a2-3)GalNAc
# How it was run: as §1
# [25] = target: Neu5Ac(a2-3)GalNAc(b1-4)GlcNAc
# How it was run: as §1
# [26] = target: Neu5Ac(a2-3)[GalNAc(b1-4)]Gal(b1-4)Glc
# How it was run: as §1
# [27] = target: Neu5Ac(a2-3)[GalNAc(b1-4)]Gal(b1-4)GlcNAc
# How it was run: as §1
# [28] = target: Neu5Ac(a2-3)[GalNAc(b1-4)]Gal(b1-4)GlcNAc(b1-3)GalNAc
# How it was run: as §1
# [29] = target: Neu5Ac(a2-3)[Neu5Ac(a2-6)]GalNAc
# How it was run: as §1
# Neu5Ac(a2-6)Gal = target: Neu5Ac(a2-6)Gal
# How it was run: as §1
# [30] = target: Neu5Ac(a2-6)Gal(b1-3)GlcNAc(b1-3)[Gal(b1-4)GlcNAc(b1-6)]Gal(b1-4)Glc
# How it was run: as §1
# Neu5Ac(a2-6)Gal(b1-4)Glc = target: Neu5Ac(a2-6)Gal(b1-4)Glc
# How it was run: as §1
# [31] = target: Neu5Ac(a2-6)Gal(b1-4)GlcNAc
# How it was run: as §1
# [32] = target: Neu5Ac(a2-6)Gal(b1-4)GlcNAc(b1-2)Man
# How it was run: as §1
# [33] = target: Neu5Ac(a2-6)Gal(b1-4)GlcNAc(b1-2)Man(a1-3)Man(b1-4)GlcNAc(b1-4)GlcNAc
# How it was run: as §1
# [34] = target: Neu5Ac(a2-6)Gal(b1-4)GlcNAc(b1-2)Man(a1-3)[Gal(b1-4)GlcNAc(b1-2)Man(a1-6)]Man(b1-4)GlcNAc(b1-4)GlcNAc
# How it was run: as §1
# [35] = target: Neu5Ac(a2-6)Gal(b1-4)GlcNAc(b1-2)Man(a1-3)[GlcNAc(b1-2)Man(a1-6)]Man(b1-4)GlcNAc(b1-4)GlcNAc
# How it was run: as §1
binder,measurement,setting,value
"ERGIC1-EDTA (Homo sapiens), Q969X5 (protein) MKFLVNVALVFMVVYISYIYAAAHMHHHHHHDYDIPTTENLYFQGSEVVNELYVDDPDKDSGGKIDVSLNISLPNLHCELVGLDIQDEMGRHEVGHIDNSMKIPLNNGAGCRFEGQFSINKVPGNFHVSTHSATAQPQNPDMTHVIHKLSFGDTLQVQNIHGAFNALGGADRLTSNPLASHDYILKIVPTVYEDKSGKQRYSYQYTVANKEYVAYSHTGRIIPAIWFRYDLSPITVKYTE",glycan array binding signal (z-score),[1],0.508
same,glycan array binding signal (z-score),[2],-0.486
same,glycan array binding signal (z-score),[3],0.751
same,glycan array binding signal (z-score),[4],-0.406
same,glycan array binding signal (z-score),[5],0.647
same,glycan array binding signal (z-score),[6],-0.989
same,glycan array binding signal (z-score),[7],-0.82
same,glycan array binding signal (z-score),[8],0.024
same,glycan array binding signal (z-score),[9],1.09
same,glycan array binding signal (z-score),[10],-0.324
same,glycan array binding signal (z-score),[11],-0.533
same,glycan array binding signal (z-score),[12],-0.285
same,glycan array binding signal (z-score),[13],0.354
same,glycan array binding signal (z-score),[14],0.226
same,glycan array binding signal (z-score),[15],-0.895
same,glycan array binding signal (z-score),[16],-1.23
same,glycan array binding signal (z-score),[17],2.27
same,glycan array binding signal (z-score),[18],-1.07
same,glycan array binding signal (z-score),[19],3
same,glycan array binding signal (z-score),[20],0.719
same,glycan array binding signal (z-score),[21],1.03
same,glycan array binding signal (z-score),[22],-0.552
same,glycan array binding signal (z-score),[23],-0.233
same,glycan array binding signal (z-score),[24],-1.17
same,glycan array binding signal (z-score),Neu5Ac(a2-3)GalNAc,-0.644
same,glycan array binding signal (z-score),[25],-0.941
same,glycan array binding signal (z-score),[26],-0.417
same,glycan array binding signal (z-score),[27],0.563
same,glycan array binding signal (z-score),[28],0.21
same,glycan array binding signal (z-score),[29],-0.668
same,glycan array binding signal (z-score),Neu5Ac(a2-6)Gal,1.44
same,glycan array binding signal (z-score),[30],0.481
same,glycan array binding signal (z-score),Neu5Ac(a2-6)Gal(b1-4)Glc,0.01
same,glycan array binding signal (z-score),[31],0.443
same,glycan array binding signal (z-score),[32],0.07
same,glycan array binding signal (z-score),[33],-0.277
same,glycan array binding signal (z-score),[34],-0.447
same,glycan array binding signal (z-score),[35],0.41

# Taken from the entries so far for reference:
binder,measurement,setting,value
"ERGIC1-EDTA (Homo sapiens), Q969X5 (protein) MKFLVNVALVFMVVYISYIYAAAHMHHHHHHDYDIPTTENLYFQGSEVVNELYVDDPDKDSGGKIDVSLNISLPNLHCELVGLDIQDEMGRHEVGHIDNSMKIPLNNGAGCRFEGQFSINKVPGNFHVSTHSATAQPQNPDMTHVIHKLSFGDTLQVQNIHGAFNALGGADRLTSNPLASHDYILKIVPTVYEDKSGKQRYSYQYTVANKEYVAYSHTGRIIPAIWFRYDLSPITVKYTE",glycan array binding signal (z-score),[26],-0.417
same,glycan array binding signal (z-score),[27],0.563
